According to US20140093457A1, “Compositions, methods and kits for remineralization and inhibition of dental caries in teeth” (President and Fellows of Harvard College, priority 2010, published 2014):
For at least one compound, name, drawing or mass did not settle the structure.

Assay: Tetracycline fluorescence in enamel samples from extracted teeth
Conditions: 1 mg/ml, 60 seconds, UV 260 nm

CN(C)[C@@H]1C(O)=C(C(N)=O)C(=O)[C@@]2(O)C(O)=C3C(=O)c4c(O)cccc4[C@@](C)(O)[C@H]3C[C@@H]12 [tetracycline]
fluorescence at white spot: clear locus of bright yellow fluorescence
